We go through two molecules from article PMC10925040.

Chains of the proteins cited; added tags and fusions are not shown.
UniProt P35222: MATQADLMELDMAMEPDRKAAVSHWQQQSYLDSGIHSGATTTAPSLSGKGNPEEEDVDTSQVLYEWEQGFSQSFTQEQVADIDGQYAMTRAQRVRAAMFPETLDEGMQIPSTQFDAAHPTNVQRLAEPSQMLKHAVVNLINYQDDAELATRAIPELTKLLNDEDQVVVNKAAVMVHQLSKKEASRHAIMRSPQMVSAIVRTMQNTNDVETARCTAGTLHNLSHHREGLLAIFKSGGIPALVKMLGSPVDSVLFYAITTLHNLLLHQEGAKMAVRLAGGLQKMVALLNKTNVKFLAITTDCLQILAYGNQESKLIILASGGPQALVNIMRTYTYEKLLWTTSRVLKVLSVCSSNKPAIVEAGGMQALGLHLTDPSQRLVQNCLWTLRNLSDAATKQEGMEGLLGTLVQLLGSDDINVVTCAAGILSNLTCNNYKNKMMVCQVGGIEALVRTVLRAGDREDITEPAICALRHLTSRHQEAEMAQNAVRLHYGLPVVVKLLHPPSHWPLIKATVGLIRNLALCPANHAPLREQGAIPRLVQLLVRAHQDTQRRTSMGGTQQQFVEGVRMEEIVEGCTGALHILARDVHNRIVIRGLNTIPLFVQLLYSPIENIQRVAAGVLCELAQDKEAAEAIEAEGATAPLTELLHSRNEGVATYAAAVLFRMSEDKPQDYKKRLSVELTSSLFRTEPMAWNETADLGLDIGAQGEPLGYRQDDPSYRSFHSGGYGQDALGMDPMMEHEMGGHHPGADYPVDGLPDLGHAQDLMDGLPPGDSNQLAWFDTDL

The target in experiment [1] is T1, Solute carrier family 26 member 9 (SLC26A9), Flag-tagged (human) (UniProt Q7LBE3).
T1 sequence: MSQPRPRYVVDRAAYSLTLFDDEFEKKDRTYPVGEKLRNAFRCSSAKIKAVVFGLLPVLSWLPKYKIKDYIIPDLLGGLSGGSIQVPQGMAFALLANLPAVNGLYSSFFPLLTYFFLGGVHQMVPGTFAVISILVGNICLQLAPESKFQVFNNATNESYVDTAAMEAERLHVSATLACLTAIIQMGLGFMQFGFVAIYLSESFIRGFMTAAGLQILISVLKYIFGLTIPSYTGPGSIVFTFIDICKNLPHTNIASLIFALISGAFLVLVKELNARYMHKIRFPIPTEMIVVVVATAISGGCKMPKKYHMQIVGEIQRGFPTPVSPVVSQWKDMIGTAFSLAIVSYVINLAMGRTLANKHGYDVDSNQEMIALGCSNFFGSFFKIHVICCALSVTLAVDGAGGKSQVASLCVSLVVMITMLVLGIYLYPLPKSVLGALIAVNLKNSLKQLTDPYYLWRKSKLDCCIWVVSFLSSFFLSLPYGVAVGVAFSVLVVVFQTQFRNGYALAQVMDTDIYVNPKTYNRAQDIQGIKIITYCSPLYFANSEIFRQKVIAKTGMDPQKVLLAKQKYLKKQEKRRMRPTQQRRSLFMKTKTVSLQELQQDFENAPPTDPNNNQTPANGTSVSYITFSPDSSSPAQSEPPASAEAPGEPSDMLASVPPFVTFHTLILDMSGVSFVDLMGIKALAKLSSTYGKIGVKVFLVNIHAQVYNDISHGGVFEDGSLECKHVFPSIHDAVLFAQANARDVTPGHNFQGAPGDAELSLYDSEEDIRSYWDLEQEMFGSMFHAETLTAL
As to the kind of experiment: co-IP; CRC cell lysates (1000 μg) with protease/phosphatase inhibitor mixture, overnight with Flag antibody, anti-β-catenin IgG or rabbit IgG; protein A/G 4 °C 4 h; washed three times; western blot.

Experiment [2] has as its target β-catenin (endogenous, CRC cells) (human (endogenous in CRC cells)) (UniProt P35222). The description is as above.

These are yes or no findings as the source states them, for the method shown. Binding seen in cells or lysates may run through a third protein. Some results given as binding are weak or reduced against the parent protein; the word gives no strength. Tags and fused reporters may be left off the sequences shown.

As for “β-catenin (endogenous, CRC cells) (from UniProt P35222 1-781)”, in experiment [1], the binding result is listed as “binds”.

B1: Solute carrier family 26 member 9 (SLC26A9), Flag-tagged (protein, UniProt Q7LBE3 1-791)
chain: MSQPRPRYVVDRAAYSLTLFDDEFEKKDRTYPVGEKLRNAFRCSSAKIKAVVFGLLPVLSWLPKYKIKDYIIPDLLGGLSGGSIQVPQGMAFALLANLPAVNGLYSSFFPLLTYFFLGGVHQMVPGTFAVISILVGNICLQLAPESKFQVFNNATNESYVDTAAMEAERLHVSATLACLTAIIQMGLGFMQFGFVAIYLSESFIRGFMTAAGLQILISVLKYIFGLTIPSYTGPGSIVFTFIDICKNLPHTNIASLIFALISGAFLVLVKELNARYMHKIRFPIPTEMIVVVVATAISGGCKMPKKYHMQIVGEIQRGFPTPVSPVVSQWKDMIGTAFSLAIVSYVINLAMGRTLANKHGYDVDSNQEMIALGCSNFFGSFFKIHVICCALSVTLAVDGAGGKSQVASLCVSLVVMITMLVLGIYLYPLPKSVLGALIAVNLKNSLKQLTDPYYLWRKSKLDCCIWVVSFLSSFFLSLPYGVAVGVAFSVLVVVFQTQFRNGYALAQVMDTDIYVNPKTYNRAQDIQGIKIITYCSPLYFANSEIFRQKVIAKTGMDPQKVLLAKQKYLKKQEKRRMRPTQQRRSLFMKTKTVSLQELQQDFENAPPTDPNNNQTPANGTSVSYITFSPDSSSPAQSEPPASAEAPGEPSDMLASVPPFVTFHTLILDMSGVSFVDLMGIKALAKLSSTYGKIGVKVFLVNIHAQVYNDISHGGVFEDGSLECKHVFPSIHDAVLFAQANARDVTPGHNFQGAPGDAELSLYDSEEDIRSYWDLEQEMFGSMFHAETLTAL
Regarding B1, the binding entry in experiment [2] was “binds”.
